Laboratory results as given in the supplement of paper PMC4604168 (melanoma cell lines).
The other results are listed elsewhere or left out. Many values rest on one well or one pass, so single values are uncertain.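 The apoptosis fraction was the count of cleaved-PARP antibody-stained nuclei relative to all DNA-stained nuclei, imaged in 1,536-well plates. Screening doses were set so most cells survived, and baseline and induced cleaved-PARP levels vary greatly across cell lines.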

system: A375; assay: cleaved PARP positive nuclei fraction relative to DMSO control; melanoma cells; higher = more apoptosis; conditions: library dose: low library concentration; 72 h

Structure (SMILES) | cleaved PARP positive nuclei fraction
C[C@]1(c2nc3c(C(N)=O)cccc3[nH]2)CCCN1 [Veliparib] + O=c1cc(-c2cccc3c2Sc2ccccc2S3)oc(N2CCOCC2)c1 [KU55933] (first compound 1.4 µM, partner dose 1 µM) | 116%
CC(C)(C)c1cnc(CSc2cnc(NC(=O)C3CCNCC3)s2)o1 + COc1cc2ncnc(Nc3ccc(Oc4ccccc4)cc3)c2cc1OC [SrcI1] (first compound 0.01 µM, partner dose 2 µM) | 143%
C#Cc1cccc(Nc2ncnc3cc(OCCOC)c(OCCOC)cc23)c1 [erlotinib] + OCCn1cc(-c2cnc3nnn(Cc4ccc5ncccc5c4)c3n2)cn1 [PF04217903] (first compound 0.8 µM, partner dose 1 µM) | 260%
Cn1nnc2c(C(N)=O)ncn2c1=O [temozolomide] + Oc1nc(-c2ccc(C(F)(F)F)cc2)nc2c1CSCC2 [XAV939] (first compound 2 µM, partner dose 2 µM) | 49.3%
COCC[n+]1c2c(n(Cc3cnccn3)c1C)C(=O)c1ccccc1C2=O + CN(C)S(=O)(=O)c1ccc2c(c1)/C(=C/c1cc3c([nH]1)CCCC3)C(=O)N2 [SU6656] (first compound 0.0004 µM, partner dose 0.4 µM) | 128%
C=CCn1c(=O)c2cnc(Nc3ccc(N4CCN(C)CC4)cc3)nc2n1-c1cccc(C(C)(C)O)n1 + CN(NC(=O)CC(=O)NN(C)C(=S)c1ccccc1)C(=S)c1ccccc1 [STA4783] (first compound 0.02 µM, partner dose 0.006 µM) | 10200%
Cc1ccc(NC(=O)c2cccc(N(C)C)c2)cc1NC(=O)c1ccc(O)cc1 + Oc1cc(-c2nc(-c3ccccc3)[nH]c2-c2ccncc2)ccc1Cl [L779450] (first compound 2 µM, partner dose 0.2 µM) | 121%
Cn1nnc2c(C(N)=O)ncn2c1=O [temozolomide] + CCN(CC)CCCCNc1ncc2cc(-c3cc(OC)cc(OC)c3)c(NC(=O)NC(C)(C)C)nc2n1 [PD173074] (first compound 2 µM, partner dose 0.1 µM) | 164%
C[C@]1(c2nc3c(C(N)=O)cccc3[nH]2)CCCN1 [Veliparib] + COc1cc2c(Oc3ccc4[nH]c(C)cc4c3F)ncnc2cc1OCCCN1CCCC1 [cediranib] (first compound 1.4 µM, partner dose 0.4 µM) | 134%
C=CCn1c(=O)c2cnc(Nc3ccc(N4CCN(C)CC4)cc3)nc2n1-c1cccc(C(C)(C)O)n1 + OCCn1cc(-c2cnc3nnn(Cc4ccc5ncccc5c4)c3n2)cn1 [PF04217903] (first compound 0.02 µM, partner dose 1 µM) | 159%

Quoted at random: 3 entries already listed
Structure (SMILES) | cleaved PARP positive nuclei fraction
COCC[n+]1c2c(n(Cc3cnccn3)c1C)C(=O)c1ccccc1C2=O + CN(C)S(=O)(=O)c1ccc2c(c1)/C(=C/c1cc3c([nH]1)CCCC3)C(=O)N2 [SU6656] (first compound 0.0004 µM, partner dose 0.4 µM) | 128%
Cc1ccc(NC(=O)c2cccc(N(C)C)c2)cc1NC(=O)c1ccc(O)cc1 + Oc1cc(-c2nc(-c3ccccc3)[nH]c2-c2ccncc2)ccc1Cl [L779450] (first compound 2 µM, partner dose 0.2 µM) | 121%
C#Cc1cccc(Nc2ncnc3cc(OCCOC)c(OCCOC)cc23)c1 [erlotinib] + OCCn1cc(-c2cnc3nnn(Cc4ccc5ncccc5c4)c3n2)cn1 [PF04217903] (first compound 0.8 µM, partner dose 1 µM) | 260%

system: C32; assay: as above; conditions: library dose: low library concentration; 72 h

Structure (SMILES) | cleaved PARP positive nuclei fraction
O=C(Nc1cccc(Cl)c1)Nc1ncc(CCNc2ncnc3ccsc23)s1 + O=C(O)c1ccc(-c2c[nH]c3ncc(-c4ccccc4)cc23)cc1C1CCCC1 [GSK650394] (first compound 0.0008 µM, partner dose 0.16 µM) | 68.3%
O=C(Nc1cccc(Cl)c1)Nc1ncc(CCNc2ncnc3ccsc23)s1 + CN(NC(=O)CC(=O)NN(C)C(=S)c1ccccc1)C(=S)c1ccccc1 [STA4783] (first compound 0.0008 µM, partner dose 0.006 µM) | 54.9%
Cn1nnc2c(C(N)=O)ncn2c1=O [temozolomide] + Cc1cc([N+](=O)[O-])ccc1NS(=O)(=O)c1cc(Cl)ccc1Cl [FH535] (first compound 2 µM, partner dose 1 µM) | 81.5%
Cc1nc(Nc2ncc(C(=O)Nc3c(C)cccc3Cl)s2)cc(N2CCN(CCO)CC2)n1 [dasatanib] + C[C@]1(c2nc3c(C(N)=O)cccc3[nH]2)CCCN1 [Veliparib] (first compound 0.004 µM, partner dose 1.4 µM) | 80.4%
NC(=O)Nc1cc(-c2cccc(F)c2)sc1C(=O)N[C@H]1CCCNC1 + O=C(Nc1cccc(Cl)c1)Nc1ncc(CCNc2ncnc3ccsc23)s1 [SNS314] (first compound 0.02 µM, partner dose 0.0008 µM) | 307%
CC1(C)NC(=O)N(c2ccc([N+](=O)[O-])c(C(F)(F)F)c2)C1=O [nilutamide] + CO[C@@H]1[C@H](N(C)C(=O)c2ccccc2)C[C@H]2O[C@]1(C)n1c3ccccc3c3c4c(c5c6ccccc6n2c5c31)C(=O)NC4 [Midostaurin] (first compound 1 µM, partner dose 0.08 µM) | 61.1%
Cc1nc(Nc2ncc(C(=O)Nc3c(C)cccc3Cl)s2)cc(N2CCN(CCO)CC2)n1 [dasatanib] + Cn1cc(/C=C2\C(=O)Nc3cccnc32)c2ccccc21 [GW441756] (first compound 0.004 µM, partner dose 0.4 µM) | 55.3%
OCc1c[nH]c2ccccc12 [Indole-3-carbinol] + Clc1ccc(Nc2nnc(Cc3ccncc3)c3ccccc23)cc1 [vatalanib] (first compound 0.8 µM, partner dose 2 µM) | 166%
C=CCNC1=C2C[C@@H](C)C[C@H](OC)[C@H](O)[C@@H](C)/C=C(\C)[C@H](OC(N)=O)[C@@H](OC)/C=C\C=C(/C)C(=O)NC(=CC1=O)C2=O [Tanespimycin] + Cn1nnc2c(C(N)=O)ncn2c1=O [temozolomide] (first compound 0.002 µM, partner dose 2 µM) | 163%
Cc1cc(N2CCOCC2)cc2[nH]c(-c3c(NC[C@@H](O)c4cccc(Cl)c4)cc[nH]c3=O)nc12 + Oc1nc(-c2ccc(C(F)(F)F)cc2)nc2c1CSCC2 [XAV939] (first compound 0.2 µM, partner dose 2 µM) | 249%
Clc1ccc(Nc2nnc(Cc3ccncc3)c3ccccc23)cc1 [vatalanib] + COc1cc(Nc2ncc(F)c(Nc3ccc4c(n3)NC(=O)C(C)(C)O4)n2)cc(OC)c1OC [Tamatinib] (first compound 2 µM, partner dose 0.4 µM) | 116%
Cc1cc(N2CCOCC2)cc2[nH]c(-c3c(NC[C@@H](O)c4cccc(Cl)c4)cc[nH]c3=O)nc12 + Oc1cc(-c2nc(-c3ccccc3)[nH]c2-c2ccncc2)ccc1Cl [L779450] (first compound 0.2 µM, partner dose 0.2 µM) | 49.4%
C=CCn1c(=O)c2cnc(Nc3ccc(N4CCN(C)CC4)cc3)nc2n1-c1cccc(C(C)(C)O)n1 + Cc1cc([N+](=O)[O-])ccc1NS(=O)(=O)c1cc(Cl)ccc1Cl [FH535] (first compound 0.02 µM, partner dose 1 µM) | 85.6%
Cc1ccc(NC(=O)c2cccc(N(C)C)c2)cc1NC(=O)c1ccc(O)cc1 + CC(C)(C)c1cnc(CSc2cnc(NC(=O)C3CCNCC3)s2)o1 [SNS-032] (first compound 2 µM, partner dose 0.01 µM) | 73.2%
Cc1nc(Nc2ncc(C(=O)Nc3c(C)cccc3Cl)s2)cc(N2CCN(CCO)CC2)n1 [dasatanib] + NC(=O)Nc1cc(-c2cccc(F)c2)sc1C(=O)N[C@H]1CCCNC1 [AZD7762] (first compound 0.004 µM, partner dose 0.02 µM) | 190%
C#Cc1cccc(Nc2ncnc3cc(OCCOC)c(OCCOC)cc23)c1 [erlotinib] + COc1ccc(Cl)c(Nc2nc3ccccc3nc2NS(=O)(=O)c2cccc(NC(=O)C(C)(C)N)c2)c1 [XL147] (first compound 0.8 µM, partner dose 0.8 µM) | 177%
CO[C@@H]1[C@H](N(C)C(=O)c2ccccc2)C[C@H]2O[C@]1(C)n1c3ccccc3c3c4c(c5c6ccccc6n2c5c31)C(=O)NC4 [Midostaurin] + c1cc(-c2cnn3cc(-c4ccc(OCCN5CCCCC5)cc4)cnc23)ccn1 [Dorsomorphin] (first compound 0.08 µM, partner dose 0.4 µM) | 67.2%
NC(=O)Nc1cc(-c2cccc(F)c2)sc1C(=O)N[C@H]1CCCNC1 + N#Cc1c(O)c2c(-c3ccc(-c4ccccc4O)cc3)csc2[nH]c1=O [A769662] (first compound 0.02 µM, partner dose 2 µM) | 74.5%
C[C@]1(c2nc3c(C(N)=O)cccc3[nH]2)CCCN1 [Veliparib] + Cc1cc(N2CCOCC2)cc2[nH]c(-c3c(NC[C@@H](O)c4cccc(Cl)c4)cc[nH]c3=O)nc12 [BMS536924] (first compound 1.4 µM, partner dose 0.2 µM) | 95.5%
OCCn1cc(-c2cnc3nnn(Cc4ccc5ncccc5c4)c3n2)cn1 + CCN(CC)CCCCNc1ncc2cc(-c3cc(OC)cc(OC)c3)c(NC(=O)NC(C)(C)C)nc2n1 [PD173074] (first compound 1 µM, partner dose 0.1 µM) | 66.9%
CC(=O)c1c(C)c2cnc(Nc3ccc(N4CCNCC4)cn3)nc2n(C2CCCC2)c1=O [palbociclib] + O=S(=O)(c1ccccc1)N(CC(F)(F)F)c1ccc(C(O)(C(F)(F)F)C(F)(F)F)cc1 [T0901317] (first compound 0.04 µM, partner dose 1.4 µM) | 245%
Cc1nc(Nc2ncc(C(=O)Nc3c(C)cccc3Cl)s2)cc(N2CCN(CCO)CC2)n1 [dasatanib] + CN(C)S(=O)(=O)c1ccc2c(c1)/C(=C/c1cc3c([nH]1)CCCC3)C(=O)N2 [SU6656] (first compound 0.004 µM, partner dose 0.4 µM) | 391%
